# Values quoted from earlier work as cited in US7339065B2, “Design and synthesis of optimized ligands for PPAR” (Bethesda Pharmaceuticals, Inc., priority 2003, dated 2008).
# At least one structure is not confirmed: it was looked up by name or label, or the drawing left a doubt.
# Test system: PPARgamma or PPARalpha
# Conditions: value used for calculating the oral dose; cited from earlier work
smiles,measurement,value
CN(CCOc1ccc(CC2SC(=O)NC2=O)cc1)c1ccccn1 (stereo not shown) [rosiglitazone],EC50,60 nM
